# Source: the supplement of paper PMC9226226
# Several values for one entry are separate records, joined by “and”; a condition that tells them apart may be missing. Identical values can stand only once. The list shows a part of the results. Several reference drugs read as weak here; read low effects with care.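 Human mesenchymal stem cells lacking the Werner syndrome gene, which age prematurely, were used. Automated live-cell imaging tracked growth across three biological repeats; the twenty drugs raising growth most relative to vehicle advanced, without a stated fixed cutoff.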 Numbered stars: 1 amine (or outer) side, 2 acyl side, 3 side chain; on linkers, the order of the positions; unused ones are H or OH. Bridge positions count the residues as written; N and C are the ends. Square brackets hold non-standard residues; d marks the D form. Peptide text beside a SMILES is read from it. * marks the point of attachment. hTyr(3S-OH,4S-OH,3'-OSO3H) = N[C@H](C(=O)O)[C@H](O)[C@@H](O)c1ccc(O)c(OS(=O)(=O)O)c1; Orn(4R-OH,5R-OH) = O=C([C@H](C[C@@H](O)[C@@H](O)N[*:3])N[*:1])[*:2]; Pro(3S-OH,4S-Me) = C[C@H]1CN[C@H](C(=O)O)[C@H]1O; X1 = CCCCCOc1ccc(-c2cc(-c3ccc(C(=O)*)cc3)no2)cc1; Gln(3R-OH) = NC(=O)C[C@@H](O)[C@H](N)C(=O)O; Hyp = O=C(O)[C@@H]1C[C@@H](O)CN1
# System: Werner syndrome hMSCs (WRN-/-)
# Test: relative cell density (fold change vs vehicle control); higher = more proliferation (geroprotective)
# Conditions: concentration (umol/L): 1, 6 days
SMILES,relative cell density (vehicle: DMSO),relative cell density (vehicle: Water)
C[N+]1(C)[C@@H]2C[C@@H](OC(=O)C(O)(c3cccs3)c3cccs3)C[C@H]1[C@@H]1O[C@@H]12,1.05,
CC(C)(C)C(=O)Oc1ccc(S(=O)(=O)Nc2ccccc2C(=O)NCC(=O)O)cc1,0.999,
CC(C(=O)O)c1ccc2c(c1)Cc1cccnc1O2 (configuration not stated),1.22,
C[C@H]1COc2c(C3(N)CC3)c(F)cc3c(=O)c(C(=O)O)cn1c23,1.19,
CC(=O)Nc1ccccc1,0.944,
COC(c1ccccc1)(c1ccccc1)[C@H](Oc1nc(C)cc(C)n1)C(=O)O,1.18,
COC(=O)C1=C(C)NC(C)=C(C(=O)OCCN2CCN(C(c3ccccc3)c3ccccc3)CC2)C1c1cccc([N+](=O)[O-])c1 (configuration not stated),1.28 and 1.17,
Cc1c(C)c2c(c(C)c1O)CCC(C)(COc1ccc(CC3SC(=O)NC3=O)cc1)O2 (configuration not stated),1.05,
C[N+]1(C)[C@@H]2CC[C@H]1C[C@@H](OC(=O)C(O)c1ccccc1)C2 (some centres not stated),1.22,
Cc1ccccc1-c1cc(N2CCN(C)CC2)ncc1N(C)C(=O)C(C)(C)c1cc(C(F)(F)F)cc(C(F)(F)F)c1,,1.05
CC(C)OC(=O)[C@H](C)N[P@](=O)(OC[C@H]1O[C@@H](n2ccc(=O)[nH]c2=O)[C@](C)(F)[C@@H]1O)Oc1ccccc1,1.46,
COC(=O)Nc1nc2cc(C(=O)c3ccccc3)ccc2[nH]1,0.245,
CC1(C)S[C@@H]2[C@H](NC(=O)[C@H](NC(=O)N3CCNC3=O)c3ccccc3)C(=O)N2[C@H]1C(=O)O,1.08,
CC(C)c1ccc2oc3nc(N)c(C(=O)O)cc3c(=O)c2c1,0.934,
Cc1cn([C@H]2O[C@@H](CO)[C@H](O)[C@H]2F)c(=O)[nH]c1=O,1.1,
CC(CCc1ccccc1)NCC(O)c1ccc(O)c(C(N)=O)c1 (configuration not stated),1.2,
CCOC(=O)[C@H](CCc1ccccc1)N[C@@H](C)C(=O)N1Cc2ccccc2C[C@H]1C(=O)O,1.09,
CC1CC(OC(=O)C(O)c2ccccc2)CC(C)(C)C1 (configuration not stated),1.36,
Cc1oncc1C(=O)Nc1ccc(C(F)(F)F)cc1,1.04,

SMILES,relative cell density (vehicle: DMSO),relative cell density (vehicle: Water)
COc1ccc(C(Cl)=C(c2ccc(OC)cc2)c2ccc(OC)cc2)cc1,0.691,
O=C(O)c1cccnc1Nc1cccc(C(F)(F)F)c1,0.956,
CN(C)/N=N/c1[nH]cnc1C(N)=O,0.886,
C[N+](C)(C)CCCCCC[N+](C)(C)C,,1.01
O=c1ccc2ccc(OCCCCN3CCN(c4cccc5sccc45)CC3)cc2[nH]1,1.35,
Cc1onc(-c2c(Cl)cccc2Cl)c1C(=O)N[C@@H]1C(=O)N2[C@@H]1SC(C)(C)[C@@H]2C(=O)O,0.88,
O=C(O)COCCN1CCN(C(c2ccccc2)c2ccc(Cl)cc2)CC1 (configuration not stated),1.07,
N[C@@H]1CONC1=O,,0.993
CCCSc1nc(N[C@@H]2C[C@H]2c2ccc(F)c(F)c2)c2nnn([C@@H]3C[C@H](OCCO)[C@@H](O)[C@H]3O)c2n1,0.568,
CC(=O)O[C@]1(C(C)=O)CC[C@H]2[C@@H]3C=C(Cl)C4=CC(=O)[C@@H]5C[C@@H]5[C@]4(C)[C@H]3CC[C@@]21C,1.26,
CC(C)c1cc(-c2n[nH]c(=O)n2-c2ccc3c(ccn3C)c2)c(O)cc1O,0.0994,
CC(=O)O[C@]1(C(C)=O)CC[C@H]2[C@@H]3CCC4=CC(=O)CCC4=C3[C@@H](c3ccc(N(C)C)cc3)C[C@@]21C,1.12,
"CCCCCOc1ccc(-c2cc(-c3ccc(C(=O)N[C@H]4C[C@@H](O)[C@@H](O)NC(=O)[C@@H]5[C@@H](O)[C@@H](C)CN5C(=O)[C@H]([C@H](O)CC(N)=O)NC(=O)[C@H]([C@H](O)[C@@H](O)c5ccc(O)c(OS(=O)(=O)O)c5)NC(=O)[C@@H]5C[C@@H](O)CN5C(=O)[C@H]([C@@H](C)O)NC4=O)cc3)no2)cc1 (X1-[Orn(4R-OH,5R-OH)]T[Hyp][hTyr(3S-OH,4S-OH,3'-OSO3H)][Gln(3R-OH)][Pro(3S-OH,4S-Me)]; lactam 1-C)",,1.14
COc1cc2nc(N(C)CCCNC(=O)C3CCCO3)nc(N)c2cc1OC (configuration not stated),0.864,
CCCCc1nc2cc(/C=C/C(=O)NO)ccc2n1CCN(CC)CC,0.625,
N=C(N)Nc1ccc(C(=O)Oc2ccc3cc(C(=N)N)ccc3c2)cc1,1.11,
NC(=O)c1nc(F)cnc1O,0.927,
CC#CC(=O)N1CCC[C@H]1c1nc(-c2ccc(C(=O)Nc3ccccn3)cc2)c2c(N)nccn12,0.877,
N[C@@H](Cc1c[nH]c2ccc(O)cc12)C(=O)O,1.11,

SMILES,relative cell density (vehicle: DMSO),relative cell density (vehicle: Water)
CN1C[C@@H]2C[C@H]1CN2c1cc2c(cc1F)c(=O)c(C(=O)O)cn2C1CC1,,1.04
C[C@]12CC[C@H](O)CC1=CC[C@@H]1[C@@H]2CC[C@]2(C)C(n3cnc4ccccc43)=CC[C@@H]12,0.844,
CNC(=O)CN(CCN(CCN(CC(=O)[O-])CC(=O)NC)CC(=O)[O-])CC(=O)[O-].O.[Gd+3],,1.05
CC1=C(/C=C/C(C)=C/C=C/C(C)=C/C(=O)O)C(C)(C)CCC1,0.897,
O=C(Nc1nc2cccc(-c3ccc(CN4CCS(=O)(=O)CC4)cc3)n2n1)C1CC1,0.999,
N=C(N)NS(=O)(=O)c1ccc(N)cc1,1.38,
CC(=O)Oc1ccccc1C(=O)O,1.51,
CNS(=O)(=O)CCc1ccc2[nH]cc(C3CCN(C)CC3)c2c1,1.04,
Cc1ncc(CO)c(CO)c1O,1.17 and 1.06,
OC(c1ccccc1)(c1ccccc1)C12CC[N+](CCOCc3ccccc3)(CC1)CC2,0.913,
CC1(C)[C@H](C(=O)O)N2C(=O)C[C@H]2S1(=O)=O,1.16 and 1.06,
N[C@@H](CCC(=O)N[C@@H](CS)C(=O)NCC(=O)O)C(=O)O,,1.33
CC1=C(C(=O)O)N2C(=O)[C@@H](NC(=O)[C@H](N)C3=CCC=CC3)[C@H]2SC1,,0.854
C#Cc1cccc(Nc2ncnc3cc4c(cc23)OCCOCCOCCO4)c1,1.67,
C=CC(=O)Nc1cc(Nc2nccc(-c3cn(C)c4ccccc34)n2)c(OC)cc1N(C)CCN(C)C,0.86,
CCCN(CCC)S(=O)(=O)c1ccc(C(=O)O)cc1,1.38,
CCN(CC)C(=O)c1cccc(C)c1,1.11,
CCN(CC)C(=O)c1cccnc1,1.02,
C[C@]12CC[C@@H]3c4ccc(O)cc4CC[C@H]3[C@@H]1CC[C@@H]2O,0.963,
